Measurements as given in PubChem BioAssay AID590 (National Center for Advancing Translational Sciences (NCATS), 2007).
The campaign covered roughly 59,000 compounds. About 6,500 (11%) were called active. The inconclusive results got no clear call from the source; some entries with a clear call stand among them for comparison. Cut-off read from the data, not from the text of the source: active = max dye-equivalent concentration above about 10 nM; inconclusive = mostly about 1.1 nM to 9.6 nM; inactive = weaker than that.

Test: qHTS Assay for Spectroscopic Profiling in A350 Spectral Region
Settings: Compound autofluorescence, 340/450 nm, Alexa 350 dye-equivalents; hits give high values

Structure (SMILES) | max dye-equivalent concentration
COC(=O)CN(c1ccc2c(c1)OCCO2)S(=O)(=O)c1ccccc1 | inactive
COc1nc(-c2ccc(C)cc2)ccc1-c1noc(-c2cccnc2)n1 | active: 14 nM
COc1ccc(OC)c(NC(=O)C2C3C=CC(C3)C2C(=O)NCc2ccccn2)c1 (centres undefined) | active: 18 nM
CC1CCc2c(sc(NC(=O)c3ccc(Cn4cc(Br)cn4)o3)c2C(N)=O)C1 (centres undefined) | active: 110 nM
C#C[C@H](N)CCC(=O)O | inactive
Cc1cc(S(=O)(=O)n2cnc3ccccc32)c(C)cc1Cl | inconclusive: 1.2 nM
COc1ccc(CNc2nc3c(c(=O)n(Cc4ccc(F)cc4)c(=O)n3C)n2C)cc1 | inactive
COCCn1c(=O)c(-c2ccccc2)nc2cnc(N3CCNCC3)nc21 | active: 330 nM
Cc1ccc(-c2nc3ccccc3n3nnnc23)cc1 | active: 620 nM
CCC(=O)Nc1c(C#N)c2nc3ccccc3nc2n1-c1ccc(C)cc1 | active: 2600 nM
O=C(Cc1cccs1)Nc1ccc(NC(=O)c2ccco2)cc1 | inconclusive: 1.1 nM
CN(C)c1ccc(C(C(=O)NC(C)(C)C)N(C(=O)c2csnn2)C2CC2)cc1 (centres undefined) | inconclusive: 6.7 nM
CCc1ccc(N(C(C)=O)C2C=CS(=O)(=O)C2)cc1 (centres undefined) | inactive
COc1ccc(CN(Cc2ccccn2)C(=O)CN2C(=O)C(C)Oc3ccccc32)cc1 (centres undefined) | active: 12 nM
O=C(Nc1cnc2ccccn2c1=O)c1ccc(F)cc1 | active: 17 nM
O=C(CCCn1c(=O)[nH]c2ccccc2c1=O)NC1CCCCCC1 | inconclusive: 4 nM
O=C(Nc1nccs1)c1ccc(Br)o1 | inconclusive: 6.5 nM
O=C(CCSc1ccccc1)Nc1ccc(S(=O)(=O)N2CCOCC2)cc1 | inconclusive: 6.6 nM
O=C(CCCc1nc(-c2ccccc2Cl)no1)NC1CCCCC1 | inconclusive: 1.6 nM
CCN(CC)CCNC(=O)c1cc(Br)c(N)cc1OC | active: 220 nM

Structure (SMILES) | max dye-equivalent concentration
CCCn1c(=NC(=O)c2ccc3c(c2)OCO3)c(C#N)cc2c(=O)n3cccc(C)c3nc21 | active: 44 nM
Cc1cc(-n2c(=O)c(C#N)cc3c(=O)n4cccc(C)c4nc32)no1 | active: 14000 nM
CCN(CC)CCn1cnc2c([nH]c3cccc(OC)c32)c1=O | inconclusive: 1.6 nM
Cc1ccc(C(=O)/C=C/Nc2ccccn2)cc1 | active: 69 nM
COc1ccccc1CNc1ncnc2ccc(-c3ccc(N(C)C)cc3)cc12 | inactive
Cc1cc(NC(=O)CCC(=O)N(c2ccccc2)C(C(=O)NCC2CCCO2)c2cccnc2)no1 (centres undefined) | inactive
COCCCNC(=O)c1c(N)n(/N=C/c2cccnc2)c2nc3ccccc3nc12 | inconclusive: 7 nM
CCOC(=O)Cc1[nH]nc2c1C(C1C=CCCC1)C(C#N)=C(N)O2 (centres undefined) | inconclusive: 4 nM
Cc1ccc(CNC(=O)c2cc3c(=O)n4ccccc4nc3n(CC3CCCO3)c2=N)cc1 (centres undefined) | active: 2600 nM
CCOc1ccc2nc(N3CCCN(C(=O)Nc4ccccc4C)CC3)c(C#N)cc2c1 | active: 16 nM
Cc1ccccc1-c1nc(CN2CCCC(C(=O)NCCCN3CCOCC3)C2)c(C)o1 (centres undefined) | inconclusive: 6.4 nM
Cc1nn2c(-c3cccc(NC(=O)CSc4nc5ccccc5o4)c3)nnc2c2ccccc12 | inconclusive: 3.8 nM
CCOCCCNC(=O)CCNC(=O)c1cc(OC)c(OC)c(OC)c1 | inconclusive: 1.2 nM
Fc1ccccc1OCCCN1CCOCC1 | inactive
CCC(C)NS(=O)(=O)c1ccc(S(=O)(=O)Nc2cc3c(cc2C(C)=O)OCO3)cc1 (centres undefined) | inconclusive: 1.4 nM
OC(CCN1CCCCC1)(c1ccccc1)c1ccccc1 | inconclusive: 1.5 nM
C=CCOC(=O)C1=C(C)Nc2nc3ccccc3n2C1c1ccncc1 (centres undefined) | active: 14 nM
N#CC1=C(N)C(C#N)(C#N)[C@H](c2ccoc2)[C@H]2CN(Cc3ccccc3)CC=C12 | active: 650 nM
CC/C(=C\C(=O)c1cccnc1)Nc1ccc(C)c(C)c1 | inconclusive: 1.4 nM
CC(C)(Oc1ccc([C@@H]2CC2(Cl)Cl)cc1)C(=O)O | inactive

Structure (SMILES) | max dye-equivalent concentration
N=c1nc(N)nc(N)n1-c1ccc(S(N)(=O)=O)cc1 | inactive
Cc1cc(C)n2nc3nc(N4CCCCC4)nc(-c4ccco4)c3c2n1 | active: 29 nM
CCOC(=O)Cc1csc(NC(=O)CCS(=O)(=O)Cc2ccccc2)n1 | inconclusive: 1.7 nM
O=C(Nc1cc(N2CCOCC2)ncn1)c1ccccc1 | inactive
C=CCn1c(SCC(=O)Nc2cc(C)ccc2OC)nnc1-c1ccco1 | inconclusive: 1.3 nM
COc1ncc2nc(-c3cccs3)c(=O)n(CCC#N)c2n1 | active: 1200 nM
CCCC(=O)Nc1ccc2c(c1)nc1n2CCSC1 | inconclusive: 2.2 nM
Cc1ccccc1CS(=O)(=O)CCC(=O)NCc1ccccn1 | inactive
CNc1nnc(-c2cccc(N(C)C)c2)s1 | active: 43 nM
CCOc1ccc2[nH]c(=O)c(CN(CCN3CCOCC3)Cc3nnnn3C(C)(C)CC)cc2c1 | active: 150 nM
CCn1c(CSc2nnc(-c3ccc4c(c3)OCO4)o2)nc2cc(S(=O)(=O)N(C)C)ccc21 | inconclusive: 9.2 nM
Cc1cccc(OCC(=O)Nc2ccc(N3CCN(S(C)(=O)=O)CC3)cc2)c1C | inconclusive: 3.5 nM
Cc1cc(C)n(-c2nc(SCC(=O)N3CCCC3)c3c4c(sc3n2)CCCC4)n1 | inactive
COc1ccc2[nH]cc(C3N4CC5(C)CN3CC(C)(C4)C5=O)c2c1 (centres undefined) | inconclusive: 1.2 nM
CCc1nc(SCC(=O)NCC2CCCO2)c2oc3ccccc3c2n1 (centres undefined) | active: 22 nM
NCS(=O)(=O)O | inconclusive: 5.5 nM
CCCCCCOC(=O)C(C#N)c1nc2ccccc2nc1N1CCCCC1 (centres undefined) | active: 11 nM
Cc1c(CCC#N)c(N2CCCCC2)n2c(nc3ccccc32)c1C#N | inconclusive: 3 nM
CC(C)NC(=O)N1CCC2(CC1)CCN(C(=O)c1csnn1)CC2 | inactive

For reference, 2 of the compounds above.
Structure (SMILES) | max dye-equivalent concentration
COc1ccc(OC)c(NC(=O)C2C3C=CC(C3)C2C(=O)NCc2ccccn2)c1 (centres undefined) | active: 18 nM
CC1CCc2c(sc(NC(=O)c3ccc(Cn4cc(Br)cn4)o3)c2C(N)=O)C1 (centres undefined) | active: 110 nM
